Laboratory results from PubChem BioAssay AID652054 (National Center for Advancing Translational Sciences (NCATS), 2013).
Values joined by “and” are separate entries in the source; they are usually repeats but may differ in a detail not shown here. Identical values can stand only once. The whole screen tested about 360,000 compounds, of which about 9,100 (2.5%) were called active. Inconclusive means that the source gave no clear call. Such entries were picked first, then a sample of the others. No stated cut-off is given here; in the data, active means max response below about -50%; inconclusive means no clear call, values can overlap the other calls; inactive means above that.

Protein sequences, listed by entry. Tags and fused reporters are not part of them.
UniProt P35462, whole entry, looked up: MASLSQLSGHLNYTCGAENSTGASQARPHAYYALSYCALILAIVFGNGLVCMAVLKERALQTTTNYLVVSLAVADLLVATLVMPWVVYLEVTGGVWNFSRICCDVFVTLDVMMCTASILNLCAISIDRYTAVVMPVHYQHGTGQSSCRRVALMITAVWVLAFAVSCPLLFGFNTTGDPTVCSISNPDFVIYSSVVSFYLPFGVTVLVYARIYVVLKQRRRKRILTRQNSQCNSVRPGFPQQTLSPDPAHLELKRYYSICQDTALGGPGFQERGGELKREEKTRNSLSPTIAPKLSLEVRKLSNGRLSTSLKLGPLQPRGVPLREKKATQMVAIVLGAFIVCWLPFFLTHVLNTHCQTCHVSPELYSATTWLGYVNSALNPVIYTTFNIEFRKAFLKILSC

biological target: D(3) dopamine receptor (Homo sapiens) (UniProt P35462); test: qHTS of D3 Dopamine Receptor Antagonist: qHTS; conditions: D3R cells, DiscoveRx beta-arrestin luminescence, antagonist mode; active compounds read low
Procedure, shortened: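 Cells plated overnight at 1500 cells/well, then exposed to library compounds with dopamine controls for 90 minutes at 37 degrees C. DiscoveRx reagent added for 30–60 minutes at room temperature; luminescence read, quantitative HTS format.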
On the % scale 0 is the no-effect control and ±100 the full control effect.

Row | SMILES | max response, negative = inhibition
1 | CCOC(=O)c1c(-c2cccs2)csc1NC(=O)CN(CC)CC | inactive: 3.55%
2 | CC(=O)Oc1c(/C=C(\C#N)C(N)=O)[nH]c2ccccc12 | inconclusive: -44.3%
3 | O=C(CN1C(=O)CC(c2ccccc2)S(=O)(=O)c2ccccc21)N1CCCC1 (stereo unspecified) | inactive: 3.37%
4 | COc1cc(OC)cc(N(C(=O)c2ccco2)C(C(=O)NC2CCCC2)c2ccc(N(C)C)cc2)c1 (stereo unspecified) | inconclusive: -39.1%
5 | COc1ccc(C2CC(c3cccs3)n3nc(N)nc3N2)cc1 (stereo unspecified) | inconclusive: -30.2%
6 | CC(=O)c1cc(CN2CCN(Cc3ccc(C)cc3)C(CCO)C2)cs1 (stereo unspecified) | active: -86.3%
7 | O=C(O)/C=C/c1ccccc1Oc1ccccc1 | inconclusive: -30.8%
8 | CNC(=O)CC(=O)Nc1ccccc1C(=O)O | inconclusive: -42.8%
9 | S=C(c1ccc(N2CCCC2)cc1)N1CCCCC1 | inconclusive: -31.2%
10 | COc1ccc(CCNC(=O)c2ccc(S(=O)(=O)N(C)c3ccccc3)cc2)cc1OC | inactive: 26.8%
11 | CCOC(=O)c1[nH]ncc1CN1CCCC(C(=O)c2cc(Cl)ccc2OC)C1 (stereo unspecified) | active: -102%
12 | COc1cccc(-c2cc(C(=O)Nc3ccc(N(C)C(C)=O)cc3)c3cc(Br)ccc3n2)c1 | inactive: 0%
13 | O=C(/C=C/c1ccccc1)CC(O)(c1ccccc1)C(F)(F)F (stereo unspecified) | inconclusive: -32.5%
14 | CN1CCN(C(c2ccccn2)c2cc(Cl)c3cccnc3c2O)CC1 (stereo unspecified) | active: -126%
15 | COc1ccc(N=c2scc(-c3ccc(OC)cc3)n2CCO)cc1 | inconclusive: -30.2%
16 | CCOC(=O)[C@]12CCCC=C1N(CCc1ccc(OC)c(OC)c1)C(=O)[C@H](CC(=O)N1CCSCC1)C2 | inactive: -22.9%
18 | O=C(N/N=C/c1ccccn1)c1sc2ccccc2c1Cl | inactive: -15.7%
19 | c1cc(-c2cc3c(o2)CCCC3OCCN2CCOCC2)cs1 (stereo unspecified) | inconclusive: -41.1%
20 | CCC(C)[C@H](NC(=O)c1cc2cc(Cl)ccc2n1C)C(=O)N1CCC(C(=O)O)CC1 (stereo partly specified) | inconclusive: -37.1%
21 | COc1ccc(-c2c(-c3cc(OC)cc(OC)c3)n(C)c3ccc(-c4ccc5cc[nH]c5c4)cc23)cc1 | inactive: 4.07%
22 | O=C(NCCCN1CCN(c2ccccc2F)CC1)C1CCN(S(=O)(=O)N2CCOCC2)CC1 | inconclusive: -48.1%

Row | SMILES | max response, negative = inhibition
23 | COc1ccc(CNC(=O)CN(Cc2ccccc2)S(=O)(=O)c2ccc(Cl)cc2)cc1 | inactive: 21.9%
24 | O=[N+]([O-])/C=C/c1cn(Cc2ccc(Cl)cc2)c2ccccc12 | active: -53.4%
25 | Cc1cc(SCC(=O)NCCC2=CCCCC2)nc2ccccc12 | inconclusive: -35.5%
26 | CC(=O)Nc1ccccc1 | inactive: 31.1%
27 | O=C1[C@H](Cc2ccccc2)NCC=CC[C@@H](c2ccc(Cl)cc2)N1Cc1ccc(Cl)cc1 | inconclusive: -45.9%
28 | Cc1cc(C)nc(NN=CC2=C(N3CCOCC3)/C(=C/c3ccc(Cl)cc3)CC2)n1 | inconclusive: -31.5%
29 | COCCNC(=O)Cn1cc(C(=O)c2ccco2)c2ccccc21 | inconclusive: -32.3%
30 | C/C(=N\NC(=O)c1cc(C)nc2ccccc12)c1cccs1 | inactive: -8.67%
31 | CC(=O)Nc1ccc(Oc2ccc(S(=O)(=O)N3CCCC3)cn2)cc1 | inactive: -6.48%
32 | CCCCCC(=O)NC(=S)Nc1ccc(Cl)cn1 | inconclusive: -30.4%
33 | COc1cccc(CSc2nc3sc(C)c(C)c3c(=O)n2Cc2ccco2)c1 | inconclusive: -39.7%
34 | CC(Oc1cccc(Cl)c1)C(=O)Nc1cc(Cl)ccc1N1CCOCC1 (stereo unspecified) | inactive: -14.8%
35 | c1ccc(-c2ncc(CSc3nncn3-c3ccccc3)s2)cc1 | inconclusive: -37.5%
36 | COc1ccc(CN2C3CCCC2CC(NC(=O)Nc2cccc(C)c2)C3)cc1 (stereo unspecified) | active: -77.6%
37 | CC1CCC(NC(=O)CCNC(=O)c2ccc(Br)cc2)CC1 (stereo unspecified) | inactive: 0%
38 | COc1ccc(S(=O)(=O)Nc2cccc3c2O[C@H](CN(C)S(=O)(=O)c2ccc(Cl)cc2)[C@H](C)CN([C@H](C)CO)C3=O)cc1 | inconclusive: -39.8%
39 | Cc1[nH]n(-c2ccccc2)c(=O)c1CCOC(=O)c1ccc(C(F)(F)F)cc1 | inconclusive: -48%
40 | Cc1c(C)n(C)c2ccc(C(=O)NCCCN3CCN(c4ccc(F)cc4)CC3)cc12 | active: -55.6%
41 | N#Cc1ccccc1NC(=O)C1SC(=Nc2ccccc2)C(C(=O)Nc2ccc(Cl)cc2)=C1N (stereo unspecified) | inconclusive: -42.5%
42 | CC(C)(C)C(=O)Cn1c(=N)n(Cc2ccccc2)c2ccccc21 | inconclusive: -44.2%
43 | Cc1ccc(S(=O)(=O)N(C)c2ccc(OCC(=O)O)cc2)cc1 | inconclusive: -31.1%
44 | Cc1cc(C)c(OCCN(C)C)c(Cl)c1 | inconclusive: -37.5%

Row | SMILES | max response, negative = inhibition
45 | COc1ccc2nc3sc(C(=O)NCCN4CCc5ccccc5C4)cc3cc2c1 | active: -67.7%
46 | CC(C)[n+]1ccn(C2=C([O-])c3ccccc3C(=O)/C2=N\S(=O)(=O)c2ccccc2)c1 | inconclusive: -31.3%
47 | CCC(=O)Oc1ccc2c(C)cc(=O)oc2c1C | inconclusive: -36.9%
48 | Cc1nn(CC(=O)Nc2ccccc2)c(=O)c2ccccc12 | inconclusive: -30.3%
49 | C[C@@]12C(=O)N(CC3CCCO3)CC(=O)N1[C@H]1c3ccccc3OC[C@@H]1[C@@H]2c1ccccc1 (stereo partly specified) | inconclusive: -34.7%
50 | COc1ccc(C2=NCCn3nc4cc([N+](=O)[O-])ccc4c32)cc1 | inactive: -21.2%
51 | Cc1[nH]c(=O)[nH]c(=O)c1S(=O)(=O)N1CCCC(C(=O)NCCc2ccc(Cl)cc2)C1 (stereo unspecified) | inactive: -11.3%
52 | CN(C)S(=O)(=O)c1ccc(NC(=O)c2c(F)cccc2Cl)cc1 | inactive: 9.44%
53 | Cc1ccc(NC(=O)CC2S/C(=N/N=C/c3c[nH]c4ccccc34)NC2=O)cc1 (stereo unspecified) | inconclusive: -36.9%
54 | Cc1ccccc1CS(=O)(=O)c1ncc(Cl)c(C(=O)Nc2ccc(F)cc2)n1 | active: -83.9%
55 | CC(C)N(C(=O)Nc1ccc2nsnc2c1)C(C)C | inconclusive: -35.6%
56 | O=C(c1c(F)cccc1F)N1CCN=C1SCc1ccccc1 | inconclusive: -33.7%
57 | FC(F)(F)c1nnc2ccc(Sc3ccccn3)nn12 | inconclusive: -49.5%
58 | O=C1CCC(C(=O)OCC(=O)c2ccccc2)N1 (stereo unspecified) | inactive: 10.8%
59 | COc1ccc(OC)c(CCNC(=O)Cc2ccc(NC(=O)C3=C(C)OCCS3)cc2)c1 | inconclusive: -38%
60 | CCOc1cc(/C=C2/C(=O)N(c3ccccc3)N=C2C)ccc1OC(=O)c1cccs1 | inconclusive: -32.7%
61 | CNc1cc(CSC)nc(SCc2ccc(Cl)cc2Cl)n1 | inconclusive: -33.4%
62 | CC(C)C(=O)NC(c1ccccc1)c1cc([N+](=O)[O-])c2cccnc2c1O (stereo unspecified) | active: -76.7%
63 | C=CCSc1nnc(-c2ccc([N+](=O)[O-])cc2)o1 | inactive: -24.5%
64 | Nc1c(Cl)ncnc1N/N=C/c1ccc2ccccc2n1 | inconclusive: -37%
65 | C[C@H]1CN([C@@H](C)CO)C(=O)Cc2cc(NC(=O)CCN3CCOCC3)ccc2O[C@@H]1CN(C)Cc1ccc(Oc2ccccc2)cc1 | inconclusive: -37.9%
66 | Cc1cc(SC(C)C(=O)Nc2c(C)n(C)n(-c3ccccc3)c2=O)nc2ccccc12 (stereo unspecified) | inconclusive: -40.3%

Row | SMILES | max response, negative = inhibition
67 | CCOC(=O)C1CCCN(Cc2nc(N)nc(Nc3ccccc3)n2)C1 (stereo unspecified) | active: -60.5%
68 | CCOC(=O)N1CCN(Cc2cc(=O)oc3ccc(Cl)cc23)CC1 | inactive: -2.92%
69 | Cc1ccc(N2C(=O)c3ccccc3C2=O)cc1Cl | inconclusive: -30.6%
70 | COc1ccc(OC)c(CN2CCN(C(=O)c3cccc4ccccc34)CC2)c1 | inconclusive: -32.6%
71 | OCC1OC(n2ccc3c2ncn2ncnc32)C(O)C1O (stereo unspecified) | inactive: -0.26%
72 | O=C1[C@@H]2C(c3ccccc3Cl)=NO[C@@H]2C(=O)N1Cc1ccccc1 | inconclusive: -40.5%
73 | CCN(CC)CCCN1C(=O)c2oc3ccccc3c(=O)c2C1c1cccnc1 (stereo unspecified) | inconclusive: -38.6%
74 | CCc1ccc2c(c1)Sc1ccccc1CC2N1CCN(C)CC1 (stereo unspecified) | active: -116%
75 | O=C(COc1ccccc1)Nc1nonc1NC(=O)COc1ccccc1 | inconclusive: -38.5%
76 | Cc1ccc(CNC(=O)CN(C(=O)C2(C)CC(=O)N=C3C=CC=CN32)c2cccc(C)c2C)cc1 (stereo unspecified) | inactive: 2.21%
77 | CNC(=O)C(=O)NCC1OCCN1S(=O)(=O)c1ccc([N+](=O)[O-])cc1 (stereo unspecified) | inconclusive: -49.2%
78 | CC1=NN(c2ccccc2)C(=O)/C1=C/C=C/C=C/N(C)C | active: -69%
79 | NC(=O)C1CCN(S(=O)(=O)c2cccc(C(=O)O)c2)CC1 | inconclusive: -36.1%
80 | Clc1ccc2oc(-c3ccccc3)cc(=NCCCN3CCOCC3)c2c1 | inactive: -5.76%
81 | Cc1cc(NC(=O)C(=O)NCCN2CCN(C(=O)c3cccs3)CC2)ccc1Br | inactive: 6.05%
82 | CCCCCCCCCS(=O)(=O)N/N=C/c1cccc([N+](=O)[O-])c1 | inconclusive: -36%
83 | Cc1cc(C)cc(NC(=O)/C(C#N)=C/c2cn(CC(=O)NCc3ccco3)c3ccccc23)c1 | inconclusive: -33.8%
84 | CCC1CCCCN1S(=O)(=O)c1ccc(NC(=O)c2cccnc2)cc1 (stereo unspecified) | inactive: -2.16%
85 | CC1NC(=O)N(C)[C@@H]2NC(=O)N(C)C(c3ccc([N+](=O)[O-])cc3)[C@@H]12 (stereo partly specified) | inconclusive: -36%
86 | Cc1ccnc(NC(=O)CCC(=O)N(CC(=O)NC2CCCCC2)CC2CCCO2)c1 (stereo unspecified) | inconclusive: -34.2%
